Results are given in words; binding and its absence hold for the method and conditions named. Binding seen in cells or lysates may run through a third protein. Binding calls can cover weak binding; strength is not graded here.
Experiments:
[1] = biological target: T1, BCL9-2 in primary K19-BCL9-2 mouse mammary tumor cells (mouse (endogenous in primary K19-BCL9-2 mouse tumor cells)) (UniProt Q67FY2); assay: co-IP; primary K19-BCL9-2 mouse mammary tumor cells, whole cell lysates, Protein A sepharose; Western blot
T1 sequence: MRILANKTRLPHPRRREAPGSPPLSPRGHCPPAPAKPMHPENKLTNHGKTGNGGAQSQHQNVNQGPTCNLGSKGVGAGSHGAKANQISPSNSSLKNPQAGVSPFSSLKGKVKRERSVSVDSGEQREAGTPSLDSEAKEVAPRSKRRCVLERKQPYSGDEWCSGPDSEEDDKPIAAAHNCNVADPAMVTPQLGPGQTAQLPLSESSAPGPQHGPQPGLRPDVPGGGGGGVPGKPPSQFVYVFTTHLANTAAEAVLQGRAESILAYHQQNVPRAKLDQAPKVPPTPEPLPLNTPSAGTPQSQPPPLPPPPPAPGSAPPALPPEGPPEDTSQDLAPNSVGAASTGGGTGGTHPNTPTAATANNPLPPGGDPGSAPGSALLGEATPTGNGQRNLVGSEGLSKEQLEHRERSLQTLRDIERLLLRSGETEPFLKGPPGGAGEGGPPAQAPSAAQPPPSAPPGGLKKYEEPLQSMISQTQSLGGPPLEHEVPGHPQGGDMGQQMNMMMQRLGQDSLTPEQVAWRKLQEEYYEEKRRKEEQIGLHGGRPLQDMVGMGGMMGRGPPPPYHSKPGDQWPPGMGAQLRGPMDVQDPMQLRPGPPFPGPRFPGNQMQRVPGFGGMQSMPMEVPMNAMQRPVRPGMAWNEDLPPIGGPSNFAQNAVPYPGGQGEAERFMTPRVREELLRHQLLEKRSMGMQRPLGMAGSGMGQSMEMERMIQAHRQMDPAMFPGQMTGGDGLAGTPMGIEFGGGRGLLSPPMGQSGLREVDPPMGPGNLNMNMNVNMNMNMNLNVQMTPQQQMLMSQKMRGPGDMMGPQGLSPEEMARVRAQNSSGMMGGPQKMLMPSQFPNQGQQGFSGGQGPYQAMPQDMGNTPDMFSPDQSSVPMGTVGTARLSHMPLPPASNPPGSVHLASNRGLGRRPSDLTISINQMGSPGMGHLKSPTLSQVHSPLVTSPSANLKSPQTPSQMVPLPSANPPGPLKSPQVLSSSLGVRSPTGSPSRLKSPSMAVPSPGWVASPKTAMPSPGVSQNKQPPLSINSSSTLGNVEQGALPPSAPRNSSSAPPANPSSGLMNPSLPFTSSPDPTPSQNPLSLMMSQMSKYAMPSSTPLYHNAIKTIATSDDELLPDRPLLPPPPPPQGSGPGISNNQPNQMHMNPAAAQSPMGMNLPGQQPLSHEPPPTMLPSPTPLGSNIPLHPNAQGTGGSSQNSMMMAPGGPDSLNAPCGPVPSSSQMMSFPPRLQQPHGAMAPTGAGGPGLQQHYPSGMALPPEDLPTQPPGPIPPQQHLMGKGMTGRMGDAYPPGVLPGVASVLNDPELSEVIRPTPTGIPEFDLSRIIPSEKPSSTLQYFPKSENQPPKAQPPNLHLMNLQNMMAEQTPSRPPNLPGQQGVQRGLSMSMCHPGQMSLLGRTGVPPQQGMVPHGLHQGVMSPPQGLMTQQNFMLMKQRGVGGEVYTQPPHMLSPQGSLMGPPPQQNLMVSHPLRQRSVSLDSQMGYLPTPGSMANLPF

[2] = biological target: Pygo2 (mouse) (mouse (endogenous in primary K19-BCL9-2 mouse tumor cells)); assay: as above

Pygo2 (mouse)
binding [1]: binds

B1: BCL9-2 in primary K19-BCL9-2 mouse mammary tumor cells (protein, UniProt Q67FY2 1-1494)
chain: T1 sequence
binding [2]: binds
